{"sequences": {"note": "Amino acid sequences for entries named in this document (tags omitted).", "UniProt Q0JBA9, entry or part of it": "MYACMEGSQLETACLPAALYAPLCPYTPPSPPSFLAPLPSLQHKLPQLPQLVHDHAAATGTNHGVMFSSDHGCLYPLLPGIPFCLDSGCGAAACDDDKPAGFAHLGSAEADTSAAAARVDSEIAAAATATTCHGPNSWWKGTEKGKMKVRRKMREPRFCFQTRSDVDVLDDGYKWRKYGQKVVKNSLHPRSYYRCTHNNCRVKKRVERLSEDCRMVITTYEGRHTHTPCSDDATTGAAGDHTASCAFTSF"}, "source": "paper PMC7819943", "about": "“Rice protein-binding microarrays: a tool to detect cis-acting elements near promoter regions in rice”", "note": "The list shows a part of the results."}
{"molecular_target": "OsWRKY34 (Oryza sativa, UniProt Q0JBA9 1-250)", "assay": "protein-binding microarray (RPBM); PBS, 2% BSA, 51.3 ng/ul salmon testes DNA, 50 uM zinc acetate, 200 nM TF, 25 C, 1 h; high values mean tight binding", "conditions": "protein: recombinant; tags: N-terminal polyhistidine and DsRed monomer fusion (pET32a); label: CyDye5-dUTP incorporated in the synthesized complementary strand; 3' TTTTT single-stranded linker to array surface; dsDNA, one strand shown", "method_in_brief": "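Binding signal here means per-feature fluorescence intensity in arbitrary units. The values were read on an Axon 4000B scanner after a custom Agilent array, double-stranded by primer extension with Cy5-dUTP, was incubated with 200 nM protein at 25 °C for 1 h in PBS with 2% BSA, salmon testes DNA and 50 µM zinc acetate, then washed. The proteins were transcription factors with an N-terminal polyhistidine tag and DsRed, expressed in E. coli BL21-CodonPlus and purified on Ni–NTA.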"}
{"sequence": "ACCAAATAGAAATATTTTCCGCGAGTTTTTACTTTTCATACGGAGTCACCTAGTGCAG", "binding signal": "9970 fluorescence intensity (a.u.)"}
{"sequence": "CGCCTCCTACCTCTTGCTGCAGCGCACGGCGCCGCGCCGTCGGAGTCACCTAGTGCAG", "binding signal": "8910 fluorescence intensity (a.u.)"}
{"sequence": "GTACCAATTTTTGAAGAAAAAATTCAGCTGTCACATTGATCGGAGTCACCTAGTGCAG", "binding signal": "8170 fluorescence intensity (a.u.)"}
{"sequence": "GGCCAATCTGCCGGATATTCGCAGCCATTTACGCTTTCCACGGAGTCACCTAGTGCAG", "binding signal": "12900 fluorescence intensity (a.u.)"}
{"sequence": "GCCAAGTCTGGTTAACACATTATTTTCCTTTGTAATTGGTCGGAGTCACCTAGTGCAG", "binding signal": "9250 fluorescence intensity (a.u.)"}
{"sequence": "TTCGACGCCCAGCGCTGTCTCATCCCCTCCCCGCCAAAACCGGAGTCACCTAGTGCAG", "binding signal": "8090 fluorescence intensity (a.u.)"}
{"sequence": "CATAATATAAGATTTTTTTAGTATTGCTCACATCTATTCACGGAGTCACCTAGTGCAG", "binding signal": "8230 fluorescence intensity (a.u.)"}
{"sequence": "TTCTTACTCCTATATACTTTCAAATGTTCCAATGACTTGGCGGAGTCACCTAGTGCAG", "binding signal": "8930 fluorescence intensity (a.u.)"}
{"sequence": "CCCTGAACTTCCGCTTGATTCTTCCTGGACCTACGCTTTCCGGAGTCACCTAGTGCAG", "binding signal": "10200 fluorescence intensity (a.u.)"}
{"sequence": "GGGGCCATTTTCGTTTTTGCCACATCAACTCGAGTAGACCCGGAGTCACCTAGTGCAG", "binding signal": "8870 fluorescence intensity (a.u.)"}
{"sequence": "GCACATAAATGATACACTCTTATAAGTCGTTTTACTTTTTCGGAGTCACCTAGTGCAG", "binding signal": "11600 fluorescence intensity (a.u.)"}
{"sequence": "GACCGCCGCCGCTTGAGCTGACCTGACCCCGAGCCGAGCCCGGAGTCACCTAGTGCAG", "binding signal": "8250 fluorescence intensity (a.u.)"}
{"sequence": "CTCCTCCACGCCTCCGCCTCCGCCTCCGCCTCCACGACGTCGGAGTCACCTAGTGCAG", "binding signal": "10600 fluorescence intensity (a.u.)"}
{"sequence": "GGCGGCGGCGGCGGGGCGGCGTGGCGCCGAGGGAGGGGAACGGAGTCACCTAGTGCAG", "binding signal": "12500 fluorescence intensity (a.u.)"}
{"sequence": "TAGTGACCTAGTCGATGCGATCCTCCATCGGTTCCCTTCTCGGAGTCACCTAGTGCAG", "binding signal": "8200 fluorescence intensity (a.u.)"}
{"sequence": "CTTCTGCTTGGTGTGTTGTGTGTTTTACCTTGAGTTATCTCGGAGTCACCTAGTGCAG", "binding signal": "8480 fluorescence intensity (a.u.)"}
{"sequence": "TGACGGCGGGCGGCGGCGGGAGGGAGGGTAGAGGTAGAGCCGGAGTCACCTAGTGCAG", "binding signal": "9950 fluorescence intensity (a.u.)"}
{"sequence": "GCCCGCCTTTCAAACCCACACTGTTCATGTCTTCTTGTTCCGGAGTCACCTAGTGCAG", "binding signal": "10400 fluorescence intensity (a.u.)"}
{"sequence": "CGAGGTCAGCGCCCAACTACTACTCCTCGTCATTTTGGTTCGGAGTCACCTAGTGCAG", "binding signal": "13300 fluorescence intensity (a.u.)"}
{"sequence": "GTCCAAGTTTCTTTGTTCTTTTGCGCCTTGCACTGCAGCACGGAGTCACCTAGTGCAG", "binding signal": "13900 fluorescence intensity (a.u.)"}
{"sequence": "ACGCAAACTGCATAATTAGTTTTTTTATGTTCAATACTTCCGGAGTCACCTAGTGCAG", "binding signal": "9430 fluorescence intensity (a.u.)"}
{"sequence": "AACCCTACTTTCCGTGTCCAATATTTAACCGTCCGTCTTACGGAGTCACCTAGTGCAG", "binding signal": "11500 fluorescence intensity (a.u.)"}
{"sequence": "GCCCCACCGCGTCGGCCGTCGCGTAGCGGCCGGCCCATATCGGAGTCACCTAGTGCAG", "binding signal": "9550 fluorescence intensity (a.u.)"}
